# According to the supplement of paper PMC8728848:
# The other results are listed elsewhere or left out.
# B1: MLTim-4 (Mus musculus), Q6U7R4 (protein)
# chain: MSKGLLLLWLVTELWWLYLTPAASEDTIIGFLGQPVTLPCHYLSWSQSRNSMCWGKGSCPNSKCNAELLRTDGTRIISRKSTKYTLLGKVQFGEVSLTISNTNRGDSGVYCCRIEVPGWFNDVKKNVRLELRRAT
# Assays:
# Assay in all cases: glycan array binding signal (z-score within array); higher = stronger binding
# Conditions in all cases: glycan notation: IUPAC condensed, linker removed
# Fuc(a1-2)Gal = biological target: Fuc(a1-2)Gal
# In short: (§1)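 The binding signal is a Z-score computed within each array and averaged over linkers. Arrays of the same protein sequence at different concentrations or buffers were also averaged together. Data originate from 3228 arrays in the Consortium for Functional Glycomics database, kept only where the protein sequence was available.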
# Fuc(a1-2)Gal(b1-3)GalNAc = biological target: Fuc(a1-2)Gal(b1-3)GalNAc
# In short: as §1
# [1] = biological target: Fuc(a1-2)Gal(b1-3)GalNAc(b1-3)Gal
# In short: as §1
# [2] = biological target: Fuc(a1-2)Gal(b1-3)GalNAc(b1-3)Gal(a1-4)Gal(b1-4)Glc
# In short: as §1
# [3] = biological target: Fuc(a1-2)Gal(b1-3)GalNAc(b1-3)Gal(b1-4)Glc
# In short: as §1
# [4] = biological target: Fuc(a1-2)Gal(b1-3)GalNAc(b1-4)[Neu5Ac(a2-3)]Gal(b1-4)Glc
# In short: as §1
# [5] = biological target: Fuc(a1-2)Gal(b1-3)[Fuc(a1-4)]GlcNAc
# In short: as §1
# Fuc(a1-2)Gal(b1-4)Glc = biological target: Fuc(a1-2)Gal(b1-4)Glc
# In short: as §1
# Fuc(a1-2)Gal(b1-4)Glc6S = biological target: Fuc(a1-2)Gal(b1-4)Glc6S
# In short: as §1
# Fuc(a1-2)Gal(b1-4)GlcNAc = biological target: Fuc(a1-2)Gal(b1-4)GlcNAc
# In short: as §1
# [6] = biological target: Fuc(a1-2)Gal(b1-4)GlcNAc(b1-3)Gal(b1-4)GlcNAc
# In short: as §1
# [7] = biological target: Fuc(a1-2)Gal(b1-4)GlcNAc(b1-3)Gal(b1-4)GlcNAc(b1-3)Gal(b1-4)GlcNAc
# In short: as §1
# [8] = biological target: Fuc(a1-2)Gal(b1-4)GlcNAc6S
# In short: as §1
# [9] = biological target: Fuc(a1-2)Gal(b1-4)[Fuc(a1-3)]GalNAc(b1-3)Gal(b1-4)[Fuc(a1-3)]GlcNAc
# In short: as §1
# [10] = biological target: Fuc(a1-2)Gal(b1-4)[Fuc(a1-3)]GalNAc(b1-3)Gal(b1-4)[Fuc(a1-3)]GlcNAc(b1-3)Gal(b1-4)[Fuc(a1-3)]GalNAc
# In short: as §1
# [11] = biological target: Fuc(a1-2)Gal(b1-4)[Fuc(a1-3)]GlcNAc
# In short: as §1
# Fuc(a1-2)Gal6S(b1-4)Glc = biological target: Fuc(a1-2)Gal6S(b1-4)Glc
# In short: as §1
# [12] = biological target: Fuc(a1-2)Gal6S(b1-4)Glc6S
# In short: as §1
# [13] = biological target: Fuc(a1-2)Gal6S(b1-4)GlcNAc
# In short: as §1
# Fuc(a1-2)GlcNAc = biological target: Fuc(a1-2)GlcNAc
# In short: as §1
# Fuc(a1-2)[Gal(a1-3)]Gal = biological target: Fuc(a1-2)[Gal(a1-3)]Gal
# In short: as §1
# [14] = biological target: Fuc(a1-2)[Gal(a1-3)]Gal(b1-3)GlcNAc
# In short: as §1
# [15] = biological target: Fuc(a1-2)[Gal(a1-3)]Gal(b1-4)Glc
# In short: as §1
# [16] = biological target: Fuc(a1-2)[Gal(a1-3)]Gal(b1-4)GlcNAc
# In short: as §1
# [17] = biological target: Fuc(a1-2)[Gal(a1-3)]Gal(b1-4)[Fuc(a1-3)]GlcNAc
# In short: as §1
# [18] = biological target: Fuc(a1-2)[Gal(a1-4)]Gal(b1-4)GalNAc
# In short: as §1
# [19] = biological target: Fuc(a1-2)[GalNAc(a1-3)]Gal
# In short: as §1
# [20] = biological target: Fuc(a1-2)[GalNAc(a1-3)]Gal(b1-3)GlcNAc
# In short: as §1
# [21] = biological target: Fuc(a1-2)[GalNAc(a1-3)]Gal(b1-4)Glc
# In short: as §1
# [22] = biological target: Fuc(a1-2)[GalNAc(a1-3)]Gal(b1-4)GlcNAc
# In short: as §1
# [23] = biological target: Fuc(a1-2)[GalNAc(a1-3)]Gal(b1-4)[Fuc(a1-3)]GlcNAc
# In short: as §1
# [24] = biological target: Fuc(a1-2)[GalNAc(a1-4)]Gal(b1-4)GlcNAc
# In short: as §1
# Fuc(a1-3)GlcNAc = biological target: Fuc(a1-3)GlcNAc
# In short: as §1
# [25] = biological target: Fuc(a1-3)[Gal(b1-4)]Glc6S
# In short: as §1
# [26] = biological target: Fuc(a1-3)[Gal(b1-4)]GlcNAc
# In short: as §1
# [27] = biological target: Fuc(a1-3)[Gal(b1-4)]GlcNAc(b1-3)Gal(b1-3)[Fuc(a1-4)]GlcNAc
# In short: as §1
# [28] = biological target: Fuc(a1-3)[Gal(b1-4)]GlcNAc(b1-4)Gal(b1-4)[Fuc(a1-3)]GlcNAc
# In short: as §1
# [29] = biological target: Fuc(a1-3)[Gal(b1-4)]GlcNAc(b1-4)Gal(b1-4)[Fuc(a1-3)]GlcNAc(b1-4)Gal(b1-4)[Fuc(a1-3)]GlcNAc
# In short: as §1
# [30] = biological target: Fuc(a1-3)[Gal(b1-4)]GlcNAc6S
# In short: as §1
# [31] = biological target: Fuc(a1-3)[Gal3S(b1-4)]Glc
# In short: as §1
# [32] = biological target: Fuc(a1-3)[Gal3S(b1-4)]Glc6S
# In short: as §1
# [33] = biological target: Fuc(a1-3)[Gal3S(b1-4)]GlcNAc
# In short: as §1
# [34] = biological target: Fuc(a1-3)[Gal3S(b1-4)]GlcNAc6S
# In short: as §1
# [35] = biological target: Fuc(a1-3)[GalNAc(b1-4)]Gal(b1-4)GlcNAc
# In short: as §1
# Fuc(a1-4)GlcNAc = biological target: Fuc(a1-4)GlcNAc
# In short: as §1
# Fuc(b1-3)GlcNAc = biological target: Fuc(b1-3)GlcNAc
# In short: as §1
# Gal(a1-2)Gal = biological target: Gal(a1-2)Gal
# In short: as §1
# Gal(a1-3)Gal = biological target: Gal(a1-3)Gal
# In short: as §1
# Gal(a1-3)Gal(b1-3)Glc = biological target: Gal(a1-3)Gal(b1-3)Glc
# In short: as §1
# Gal(a1-3)Gal(b1-3)GlcNAc = biological target: Gal(a1-3)Gal(b1-3)GlcNAc
# In short: as §1
# Gal(a1-3)Gal(b1-4)GlcNAc = biological target: Gal(a1-3)Gal(b1-4)GlcNAc
# In short: as §1
# [36] = biological target: Gal(a1-3)Gal(b1-4)[Fuc(a1-3)]GalNAc
# In short: as §1
# Gal(a1-3)GlcNAc = biological target: Gal(a1-3)GlcNAc
# In short: as §1
# [37] = biological target: Gal(a1-3)[Gal(a1-4)]Gal(b1-4)GlcNAc
# In short: as §1
# Gal(a1-4)Gal(b1-4)Gal = biological target: Gal(a1-4)Gal(b1-4)Gal
# In short: as §1
# Gal(a1-4)Gal(b1-4)GalNAc = biological target: Gal(a1-4)Gal(b1-4)GalNAc
# In short: as §1
# Gal(a1-4)GlcNAc = biological target: Gal(a1-4)GlcNAc
# In short: as §1
# Gal(a1-6)Glc = biological target: Gal(a1-6)Glc
# In short: as §1
# Gal(b1-2)Gal = biological target: Gal(b1-2)Gal
# In short: as §1
# Gal(b1-3)Gal = biological target: Gal(b1-3)Gal
# In short: as §1
binder,measurement,setting,value
B1,glycan array binding signal (z-score),Fuc(a1-2)Gal,0.189
same,glycan array binding signal (z-score),Fuc(a1-2)Gal(b1-3)GalNAc,0.158
same,glycan array binding signal (z-score),[1],0.532
same,glycan array binding signal (z-score),[2],-0.142
same,glycan array binding signal (z-score),[3],0.06
same,glycan array binding signal (z-score),[4],-0.581
same,glycan array binding signal (z-score),[5],-0.631
same,glycan array binding signal (z-score),Fuc(a1-2)Gal(b1-4)Glc,0.086
same,glycan array binding signal (z-score),Fuc(a1-2)Gal(b1-4)Glc6S,-0.661
same,glycan array binding signal (z-score),Fuc(a1-2)Gal(b1-4)GlcNAc,0.084
same,glycan array binding signal (z-score),[6],-0.897
same,glycan array binding signal (z-score),[7],0.189
same,glycan array binding signal (z-score),[8],0.078
same,glycan array binding signal (z-score),[9],-0.799
same,glycan array binding signal (z-score),[10],0.195
same,glycan array binding signal (z-score),[11],-0.53
same,glycan array binding signal (z-score),Fuc(a1-2)Gal6S(b1-4)Glc,0.961
same,glycan array binding signal (z-score),[12],-0.848
same,glycan array binding signal (z-score),[13],-1.09
same,glycan array binding signal (z-score),Fuc(a1-2)GlcNAc,-0.616
same,glycan array binding signal (z-score),Fuc(a1-2)[Gal(a1-3)]Gal,0.65
same,glycan array binding signal (z-score),[14],0.674
same,glycan array binding signal (z-score),[15],-0.387
same,glycan array binding signal (z-score),[16],0.421
same,glycan array binding signal (z-score),[17],-0.703
same,glycan array binding signal (z-score),[18],0.25
same,glycan array binding signal (z-score),[19],0.079
same,glycan array binding signal (z-score),[20],-0.784
same,glycan array binding signal (z-score),[21],-0.23
same,glycan array binding signal (z-score),[22],-0.428
same,glycan array binding signal (z-score),[23],0.41
same,glycan array binding signal (z-score),[24],-0.177
same,glycan array binding signal (z-score),Fuc(a1-3)GlcNAc,-0.545
same,glycan array binding signal (z-score),[25],2.31
same,glycan array binding signal (z-score),[26],-0.495
same,glycan array binding signal (z-score),[27],-0.305
same,glycan array binding signal (z-score),[28],0.496
same,glycan array binding signal (z-score),[29],-1.27
same,glycan array binding signal (z-score),[30],0.768
same,glycan array binding signal (z-score),[31],-0.746
same,glycan array binding signal (z-score),[32],0.474
same,glycan array binding signal (z-score),[33],-0.632
same,glycan array binding signal (z-score),[34],-0.443
same,glycan array binding signal (z-score),[35],0.38
same,glycan array binding signal (z-score),Fuc(a1-4)GlcNAc,-0.125
same,glycan array binding signal (z-score),Fuc(b1-3)GlcNAc,-0.108
same,glycan array binding signal (z-score),Gal(a1-2)Gal,-0.369
same,glycan array binding signal (z-score),Gal(a1-3)Gal,-0.358
same,glycan array binding signal (z-score),Gal(a1-3)Gal(b1-3)Glc,-0.013
same,glycan array binding signal (z-score),Gal(a1-3)Gal(b1-3)GlcNAc,0.452
same,glycan array binding signal (z-score),Gal(a1-3)Gal(b1-4)GlcNAc,-0.539
same,glycan array binding signal (z-score),[36],-0.303
same,glycan array binding signal (z-score),Gal(a1-3)GlcNAc,0.41
same,glycan array binding signal (z-score),[37],-0.284
same,glycan array binding signal (z-score),Gal(a1-4)Gal(b1-4)Gal,0.491
same,glycan array binding signal (z-score),Gal(a1-4)Gal(b1-4)GalNAc,-0.456
same,glycan array binding signal (z-score),Gal(a1-4)GlcNAc,0.193
same,glycan array binding signal (z-score),Gal(a1-6)Glc,0.212
same,glycan array binding signal (z-score),Gal(b1-2)Gal,1.47
same,glycan array binding signal (z-score),Gal(b1-3)Gal,0.543

# 3 neighbouring records out of the list so far, for reference:
binder,measurement,setting,value
B1,glycan array binding signal (z-score),[3],0.06
same,glycan array binding signal (z-score),[4],-0.581
same,glycan array binding signal (z-score),[5],-0.631
